Measurements as given in PubChem BioAssay AID1487 (National Center for Advancing Translational Sciences (NCATS), 2009).
Where “and” joins values, the source holds several entries; their conditions need not be identical. Equal entries are not always repeated. Some of the results follow. The main result of the screen is listed elsewhere. These columns were measured beside it and carry no call. The list favours compounds with an active or inconclusive main result. The note in brackets gives the kind of curve behind each potency; many fits are weak.

Test: qHTS Assay for Modulators of Lamin A Splicing
Settings: HeLa LMNA splicing GFP/RFP minigene ratio, 48 h
In short: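 S3 HeLa stable clones carrying a lamin A-EGFP splicing minigene plus DsRed2 were seeded at 600 cells/well in Opti-MEM with 2% FBS, pin-dosed and incubated 48 h at 37°C. Acumen cytometry (488 nm) gave the GFP/RFP total-intensity ratio.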

[1] = measured here: RFP viability control channel
[2] = measured here: GFP splicing reporter channel

| Compound | AC50 [1] | AC50 [2] |
| --- | --- | --- |
| O=C(O)c1ccccc1C(=O)NNc1ccc(Cl)cc1Cl | 44.7 µM [rising, single point] |  |
| COc1cc(OC)c(OC)cc1CN1CCN(c2ccccc2OC)CC1 | 35.5 µM [rising, single point] |  |
| Cc1cccc(OCCCN2C(=O)C(=O)c3cc(C)ccc32)c1 | 15.8 µM [falling, single point] | 17.8 µM [falling, single point] |
| Cc1ccc(S(=O)(=O)NCC2CCC(C(=O)NCc3cccnc3)CC2)cc1 (centres undefined) |  | 0.01 µM [falling, full curve, poor fit] |
| c1ccc2c(c1)oc1c(NCc3ccc4c(c3)OCO4)ncnc12 | 22.4 µM [rising, single point] |  |
| CC(CNC(=O)C1CCN(Cc2cc3ccccc3n2Cc2ccccc2)CC1)c1ccccc1 (centres undefined) | 0.794 µM [falling, partial curve, poor fit] | 3.98 µM [falling, partial curve] |
| COc1ccc(CNC(=O)c2c(F)c(F)c(F)c(F)c2F)cc1 |  | 31.6 µM [falling, partial curve, poor fit] |
| CCOc1ccccc1NC(=O)CSc1nccn1-c1ccc(Cl)cc1 |  | 35.5 µM [falling, single point] |
| CCC(=O)Nc1cccc(-c2csc(-c3ccccc3)n2)c1 |  | 3.98 µM [falling, partial curve, poor fit] |
| O=c1[nH]c(=O)n([C@@H]2C[C@H](O)[C@H](CO)O2)cc1I |  | 4.47 µM [rising, partial curve] |
| CC(C)N1CCC2(CC1)C(C#N)=C(N)NC(S)=C2C#N | 15.8 µM [rising, single point] |  |
| C=CCNC(=S)Nc1ccc(Br)cc1F | 22.4 µM [rising, single point] |  |
| COc1ccc(-c2nc3cnc(Oc4cccc(Cl)c4)nc3n(C[C@H]3CCCO3)c2=O)cc1 |  | 12.6 µM [falling, partial curve] |
| CCCc1nn2c(=O)cc(COC(=O)c3ccc(NC(=O)C(C)Oc4ccccc4)cc3)nc2s1 (centres undefined) | 0.631 µM [falling, partial curve, poor fit] |  |
| CCCCSCCCNC(=S)Nc1ccccc1C | 31.6 µM [rising, single point] | 35.5 µM [rising, single point] |
| CC(C)OP(=O)(OC(C)C)C(NC(=O)c1ccc(Br)cc1)c1ccccc1 (centres undefined) | 15.8 µM [falling, partial curve] | 22.4 µM [falling, single point] |
| CCN(C(=O)C1CCN(S(=O)(=O)c2ccc3c(c2)CCCN3C(=O)C2CCC2)CC1)c1cccc(C)c1 | 11.2 µM [rising, single point] |  |
| CCOc1cc(/C=C(\C#N)c2nc(-c3cccs3)c(NC(C)=O)s2)ccc1O | 10 µM [rising, partial curve] |  |
| COC(=O)CNC(=O)C(Cc1ccccc1)NS(=O)(=O)c1ccc2c(c1)c(=O)n(C)c(=O)n2C (centres undefined) | 3.98 µM [rising, single point] |  |

| Compound | AC50 [1] | AC50 [2] |
| --- | --- | --- |
| O=[N+]([O-])c1ccccc1OCCOCCOc1cccc2cccnc12 | 0.0562 µM [rising, full curve, poor fit] |  |
| C=C(C)COc1ccc(-c2[nH]ncc2-c2ccc(Br)cc2)c(O)c1 | 35.5 µM [rising, single point] | 20 µM [rising, single point] |
| Cc1ncc(C[n+]2csc(C)c2C)c(N)n1 |  | 0.1 µM [rising, full curve, poor fit] |
| COc1cccc(/C=N/NC(=O)C(=O)N/N=C/c2cccc(OC)c2O)c1O | 5.62 µM [rising, partial curve] | 3.16 µM [falling, partial curve, poor fit] |
| Oc1c(I)cc(Cl)c2cccnc12 | 7.94 µM [falling, single point] and 100 nM [rising, partial curve, poor fit] and 12.6 µM [rising, partial curve] | 14.1 µM [falling, single point] and 14.1 µM [rising, partial curve, poor fit] and 11.2 µM [rising, partial curve] |
| CCCC12CN3CC(CCC)(CN(C1)C3c1c[nH]c3ccccc13)C2=O (centres undefined) | 8.91 µM [falling, partial curve, poor fit] | 8.91 µM [falling, partial curve, poor fit] |
| CCOC(=O)c1c(NC(=O)COC(=O)CNC(=O)c2ccco2)sc(C(C)=O)c1C |  | 20 µM [rising, single point] |
| CCCn1c(O)c(N=NC(=O)c2ccco2)c2ccccc21 | 7.08 µM [rising, partial curve, poor fit] |  |
| CC(=O)NCCOc1ccc2oc3ccccc3c2c1 | 31.6 µM [rising, single point] |  |
| CCCN1C(=O)/C(=C/c2ccc(N3CCCC3)c(C)c2)NC1=S |  | 15.8 µM [rising, single point] |
| O=[N+]([O-])c1cc(Cl)ccc1NCCNS(=O)(=O)c1ccccc1 | 35.5 µM [rising, single point] |  |
| COc1ccc(N2CCN(C(CNS(=O)(=O)c3ccc4c(c3)OCCO4)c3ccco3)CC2)cc1 (centres undefined) | 12.6 µM [rising, partial curve] |  |
| CCCn1c(NCc2ccccc2NS(=O)(=O)c2ccc(C)cc2)nc2ccccc21 | 12.6 µM [rising, single point] |  |
| CC1=C(C(=O)N2CCCCC2)C2(CCC(C)CC2)OC1=O (centres undefined) |  | 0.0112 µM [falling, full curve, poor fit] |
| O=C(NC1CCCCCC1)c1nnc(Cc2ccc(Cl)cc2)o1 |  | 0.316 µM [falling, partial curve, poor fit] |
| COC(=O)c1sc2cccc(F)c2c1S(=O)(=O)Nc1cc(OC)cc(OC)c1 | 7.08 µM [rising, partial curve] |  |
| Cc1cc(C(F)(F)F)n(-c2nc(C(=O)N/N=C/c3ccc(F)cc3)cs2)n1 | 35.5 µM [falling, single point] | 35.5 µM [falling, partial curve] |
| O=C(NCC1CCCO1)C(c1cccs1)N(Cc1ccccc1Cl)C(=O)c1ccc(-c2ccccc2)[nH]1 (centres undefined) | 12.6 µM [rising, partial curve] |  |
| CCOc1ccc(CC(=O)Nc2nnc3n2CCS3)cc1 | 0.02 µM [falling, full curve, poor fit] | 0.0355 µM [falling, full curve] |

Molecules listed so far with an aryl methoxy group (6):

| Compound | AC50 [1] | AC50 [2] |
| --- | --- | --- |
| COc1cc(OC)c(OC)cc1CN1CCN(c2ccccc2OC)CC1 | 35.5 µM [rising, single point] |  |
| COc1ccc(CNC(=O)c2c(F)c(F)c(F)c(F)c2F)cc1 |  | 31.6 µM [falling, partial curve, poor fit] |
| COc1ccc(-c2nc3cnc(Oc4cccc(Cl)c4)nc3n(C[C@H]3CCCO3)c2=O)cc1 |  | 12.6 µM [falling, partial curve] |
| COc1cccc(/C=N/NC(=O)C(=O)N/N=C/c2cccc(OC)c2O)c1O | 5.62 µM [rising, partial curve] | 3.16 µM [falling, partial curve, poor fit] |
| COc1ccc(N2CCN(C(CNS(=O)(=O)c3ccc4c(c3)OCCO4)c3ccco3)CC2)cc1 (centres undefined) | 12.6 µM [rising, partial curve] |  |
| COC(=O)c1sc2cccc(F)c2c1S(=O)(=O)Nc1cc(OC)cc(OC)c1 | 7.08 µM [rising, partial curve] |  |

Going on with the list:

| Compound | AC50 [1] | AC50 [2] |
| --- | --- | --- |
| COc1cccc(NC(=O)CSc2nccn2-c2cccc(OC)c2)c1 |  | 22.4 µM [rising, partial curve, poor fit] |
| Cc1ccc(Cn2cccc(NC(=O)c3ccco3)c2=O)cc1 | 12.6 µM [rising, partial curve] |  |
| CCc1ccc(-c2nc(CS(=O)CC(=O)NCCc3ccc(Cl)cc3)c(C)o2)cc1 (centres undefined) |  | 1.41 µM [falling, partial curve] |
| O=C1CCSC2(C(=O)N(Cc3ccc(F)cc3)c3ccccc32)N1c1ccc(F)c(F)c1 (centres undefined) |  | 0.0708 µM [rising, full curve, poor fit] |
| O=C1c2ccccc2C(Nc2cccc(C(F)(F)F)c2)N1Cc1ccco1 (centres undefined) | 11.2 µM [rising, partial curve] | 10 µM [rising, partial curve, poor fit] |
| Cc1ccc(-n2ncc(C#N)c2/N=C/N(C)C)cc1 |  | 20 µM [rising, single point] |
| CCN(CC)c1ccc(NC(=O)c2cccc(C)c2OC)c(C)c1 | 15.8 µM [rising, single point] |  |
| Cc1c(C(=O)Nc2cccc(Cl)c2)oc2ccc(S(=O)(=O)N(C)C3CCCCC3)cc12 |  | 0.158 µM [falling, single point] |
| COc1cc(C)c(C)cc1S(=O)(=O)Nc1cccc(-c2ccc(N3CCOCC3)nn2)c1 | 3.55 µM [rising, full curve, poor fit] |  |
| COC(=O)c1[nH]c2ccc(F)cc2c1NC(=O)CCN1CC(C)OC(C)C1 (centres undefined) |  | 3.16 µM [rising, single point] |
| COc1ccc(CCNC(=O)C(=O)NCC(c2ccco2)S(=O)(=O)c2ccc(F)cc2)cc1 (centres undefined) | 1.26 µM [falling, single point] |  |
| Fc1cccc(-c2cc3nc(-c4ccccc4)cc(N4CCC5(CC4)OCCO5)n3n2)c1 | 31.6 µM [rising, single point] |  |
| O=C(Cn1[nH]c(=O)c2ccccc2c1=O)Nc1ccc2c(c1)CCC2 | 10 µM [rising, single point] |  |
| CC(=O)Nc1sc(/C(C#N)=C/c2ccc(Cl)c(Cl)c2)nc1-c1ccc(C)cc1 | 0.0158 µM [falling, partial curve, poor fit] |  |
| CCn1c(/C=C2\C(=O)N(C)c3ccccc32)nc2ccccc2c1=O |  | 8.91 µM [rising, partial curve, poor fit] |
| CN(C)CCNC(=O)c1coc(=O)c(Br)c1 | 8.91 µM [falling, partial curve, poor fit] | 5.01 µM [falling, full curve, poor fit] |
| Cn1ccc2c(OCC(=O)Nc3cc(C(F)(F)F)ccc3Cl)cccc2c1=O |  | 0.891 µM [falling, full curve, poor fit] |
| CCCc1cc(C(=O)Nc2nccs2)cs1 | 14.1 µM [rising, single point] | 12.6 µM [rising, single point] |

2 compounds drawn at random from the list so far, as already listed:

| Compound | AC50 [1] | AC50 [2] |
| --- | --- | --- |
| COC(=O)c1[nH]c2ccc(F)cc2c1NC(=O)CCN1CC(C)OC(C)C1 (centres undefined) |  | 3.16 µM [rising, single point] |
| Cn1ccc2c(OCC(=O)Nc3cc(C(F)(F)F)ccc3Cl)cccc2c1=O |  | 0.891 µM [falling, full curve, poor fit] |
